Data: the supplement of paper PMC3334620
Over roughly 33,000 sequences, “E-score (-0.5 to 0.5)” has its median near -0.015; the highest 2% begin near 0.3. Some of the results follow.

molecular target: T1, Abf1 (UniProt P14164); experiment: PBM E-score (8-mer binding enrichment) (E-score (-0.5 to 0.5)); higher = stronger / more preferred TF binding; conditions: protein concentration: 200 nM; construct: GST-full length
T1 sequence: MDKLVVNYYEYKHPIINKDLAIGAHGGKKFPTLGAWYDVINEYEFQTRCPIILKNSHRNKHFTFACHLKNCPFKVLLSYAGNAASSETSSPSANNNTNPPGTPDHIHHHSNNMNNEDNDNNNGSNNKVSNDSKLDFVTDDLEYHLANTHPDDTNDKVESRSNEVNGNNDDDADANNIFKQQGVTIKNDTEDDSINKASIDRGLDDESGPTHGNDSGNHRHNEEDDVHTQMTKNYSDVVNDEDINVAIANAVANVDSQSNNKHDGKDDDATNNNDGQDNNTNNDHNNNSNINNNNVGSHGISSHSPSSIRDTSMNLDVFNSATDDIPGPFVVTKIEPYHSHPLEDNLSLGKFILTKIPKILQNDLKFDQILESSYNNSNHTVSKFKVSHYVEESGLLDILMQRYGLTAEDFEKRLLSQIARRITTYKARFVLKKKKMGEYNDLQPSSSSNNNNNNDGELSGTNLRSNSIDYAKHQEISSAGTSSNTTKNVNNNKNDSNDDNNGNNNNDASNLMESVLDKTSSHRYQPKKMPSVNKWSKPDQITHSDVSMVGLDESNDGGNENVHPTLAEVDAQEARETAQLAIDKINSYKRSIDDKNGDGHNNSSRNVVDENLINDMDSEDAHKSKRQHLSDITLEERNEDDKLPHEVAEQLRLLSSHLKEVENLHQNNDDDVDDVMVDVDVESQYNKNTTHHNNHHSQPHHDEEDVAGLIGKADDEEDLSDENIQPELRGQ
Summary of the method: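 For each ungapped eight-base word taken together with its reverse complement, the Universal PBM Analysis Suite assigned an E-score. Binding data came from GST-tagged yeast transcription factors, applied at about 100-200 nM, on universal all-10-mer Agilent arrays made double-stranded by primer extension. Fluorescent anti-GST marked bound protein, and scans were normalised with masliner.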

| Sequence | PBM E-score |
| --- | --- |
| ACAGCCAA | -0.138 |
| CAGGGCGC | 0.0743 |
| TCAGTCAA | -0.054 |
| GATTGCGC | -0.139 |
| AGCGGAGA | -0.0933 |
| CCCTAAGG | -0.082 |
| AGTGTAAG | 0.0585 |
| ACAAGGGC | -0.36 |
| ACAGGCCA | -0.17 |
| ACTGGTTA | 0.0319 |
| ACTTTAAC | -0.0969 |
| ATTTTGGC | -0.0144 |
| AGAAGTAG | 0.0896 |
| CAGTTGTA | -0.0481 |
| CGTCAATC | 0.203 |
| ATATCCCA | 0.0961 |
| CAACGTTC | -0.145 |
| ATTTCACC | -0.00781 |
| TACCCCGA | -0.0628 |
| GTACAAAA | 0.344 |
| ACTCAAGG | -0.101 |
| ATCGTGTG | 0.196 |
| CTGTTGAA | 0.128 |
| AGGTTGGA | -0.005 |
| CTTTCCTA | -0.0657 |

| Sequence | PBM E-score |
| --- | --- |
| GACAAGCC | 0.149 |
| ACCCTGCT | -0.0817 |
| CGTCGACA | 0.1 |
| ACTCTCAG | -0.135 |
| CCATGAGC | 0.0173 |
| CTCCGAAC | 0.137 |
| ATGTGTTG | 0.0379 |
| CATACAAG | -0.0732 |
| GGAATTAA | 0.0739 |
| GGTCAGAA | -0.0194 |
| CCGGAAAC | -0.0233 |
| AACCCGCA | -0.137 |
| AGGCTTGG | -0.141 |
| ACATAGTC | 0.0796 |
| GAGTCGAC | -0.0767 |
| ATAAATCG | 0.0826 |
| AGAAAGTC | 0.0405 |
| CGAGTGAG | -0.011 |
| GTCTTCGA | 0.00901 |
| ACCTGTGC | -0.132 |
| GGTTGCTA | -0.0309 |
| GCGTCATA | 0.138 |
| AGAACACT | -0.0679 |
| CTACCAAA | 0.0452 |
| AAGAGTGA | 0.238 |

| Sequence | PBM E-score |
| --- | --- |
| TCTCCAGA | -0.0332 |
| ACTCAGCA | -0.198 |
| CTCGTCGC | 0.0896 |
| AGGTCAAA | -0.0273 |
| CTCCCAAC | -0.322 |
| ATAGCGAG | -0.0697 |
| GACAGGGC | -0.129 |
| GACTGGGA | -0.0196 |
| TCGTCTAA | 0.298 |
| CCGGGATC | -0.0914 |
| GACTCCTC | -0.125 |
| AGAGGCCA | -0.169 |
| AGTGCGAG | -0.123 |
| ATAGTCTG | 0.0666 |
| CGTATCTC | 0.064 |
| ATCGTGGG | 0.166 |
| TGTCCCAA | 0.0462 |
| AGCCCGAT | -0.00479 |
| AGTTAGCA | 0.061 |
| ACTATACG | 0.171 |
| ATAGGCAC | -0.0788 |
| AGCGGTAA | -0.158 |
| AATGCATA | -0.0219 |
| AATAAAGA | 0.107 |
| ACAATAGG | 0.0552 |

| Sequence | PBM E-score |
| --- | --- |
| ACCAGAGG | -0.159 |
| CAAACCGA | -0.0466 |
| GTGAAGGA | -0.0425 |
| CACAGCCC | -0.053 |
| ACGAAAAT | 0.23 |
| AAAAATTT | 0.096 |
| GCAAAGAA | -0.0502 |
| ATGAACAC | -0.0889 |
| GAGCGAGC | 0.0315 |
| ATACGATG | 0.261 |
| AGGGCAAG | -0.257 |
| GCTTCGCA | -0.0402 |
| AACAGGGG | -0.141 |
| ACTTCAAG | 0.0326 |
| ACTGTCTA | 0.0447 |
| ACGTATGG | 0.136 |
| AATTTCGT | 0.36 |
| AGATAAAA | 0.0636 |
| GACACATA | 0.00018 |
| AGGAACTC | -0.126 |
| AGTAACGA | 0.137 |
| AAGGTAGT | -0.0911 |
| AACGCAGC | -0.00127 |
| CGCTTGAG | -0.111 |
| AAGCGACA | 0.274 |

Retrieved one by one from the list above (four):

| Sequence | PBM E-score |
| --- | --- |
| AAAAATTT | 0.096 |
| AATTTCGT | 0.36 |
| AGCGGTAA | -0.158 |
| AACAGGGG | -0.141 |

Next records follow:

| Sequence | PBM E-score |
| --- | --- |
| CACTCACA | -0.0755 |
| AGGTCCAT | 0.163 |
| TCGCTAAA | 0.111 |
| ACTGTTCA | -0.194 |
| AATCGCCG | 0.00959 |
| GCCGGTGA | 0.101 |
| CACCGTCC | 0.0367 |
| CGATATCA | 0.363 |
| AGGCCGCA | 0.00271 |
| ATTATATA | 0.181 |
| CCGACACA | -0.104 |
| CCCCATGA | -0.167 |
| AGAAAACG | 0.0425 |
| GGACTCCA | -0.208 |
| CCATCAAG | -0.205 |
| ACCATCCA | -0.194 |
| GGCAAACC | -0.197 |
| AGCGTTCA | -0.274 |
| TAACCTCA | 0.0508 |
| GCGGTGAA | -0.0455 |
| AAATCTGA | 0.124 |
| AGCTATGA | -0.0571 |
| CATCGGAC | 0.0677 |
| CACGTATA | 0.128 |
| ATTAAGCG | 0.104 |

| Sequence | PBM E-score |
| --- | --- |
| CCTGGGCA | -0.356 |
| ACGTCTAT | -0.00494 |
| CGTCCGGA | 0.0767 |
| CATACCTC | -0.0103 |
| ACTCATCC | 0.227 |
| GCTACGAA | 0.188 |
| ATGATTGG | -0.094 |
| AAACAGCC | -0.356 |
| ATCAGGCA | 0.0459 |
| ACCTCTCT | -0.24 |
| AGCCTGAC | -0.158 |
| GCATGTAA | -0.0648 |
| ACTAAAGC | -0.0308 |
| AAAGCGTA | -0.13 |
| GCACGATA | 0.355 |
| CAATCTGG | -0.128 |
| CACATTAA | -0.068 |
| TAGATCAA | 0.16 |
| AAAGTGAT | 0.397 |
| GACCCACC | -0.216 |
| AACGCTCC | -0.0663 |
| GATACCCA | 0.107 |
| ACAAGGGT | -0.145 |
| ACATGGGT | 0.102 |
| CTGACCGC | -0.15 |

| Sequence | PBM E-score |
| --- | --- |
| AAGGATAG | -0.154 |
| TCATAGGA | 0.162 |
| GGAACTCA | -0.259 |
| TCATGGAA | -0.0402 |
| AGTAGCAC | -0.136 |
| ACGAACGC | 0.214 |
| ACGTTAGG | -0.00203 |
| TAAAGAAA | 0.138 |
| AGCTACGC | 0.105 |
| ACGCCTCG | -0.0798 |
| CTTAGCTA | -0.165 |
| CTTCTCTC | -0.053 |
| GGTAGTCA | -0.138 |
| ATCACCAG | 0.203 |
| ACTGAAAA | -0.00371 |
| CGCGGATA | 0.157 |
| GCGTTGTA | 0.0739 |
| CTAGCCAC | -0.0552 |
| CCATGAAA | -0.00202 |
| ACGGATCT | -0.073 |
| GTATTCGA | -0.0809 |
| GTGGGCGA | 0.0385 |
